Data from paper PMC13059805.
No constants are given. Whether binding was seen depends on the method and setting. Binding seen in cells or lysates may run through a third protein. For part of these data: Binding can be weak; no strength is given. Sequences can lack the tags named with a protein.

Legend:
[1] = target: T1, EssC with a C-terminal Twin-Strep tag (S. aureus USA300 LAC*) (UniProt Q2G184); assay: pull-down; EssCTS held on Strep-Tactin Sepharose from 0.25% DDM extracts of S. aureus membranes (wild type, ∆essH and ∆esaA hosts, T7 permissive culture); 4°C, Buffer A (20 mM Tris pH 8, 300 mM NaCl, 10% glycerol), wash with amphipol A8-35, elution with 5 mM desthiobiotin; eluates immunoblotted; untagged EssC as control
T1 sequence: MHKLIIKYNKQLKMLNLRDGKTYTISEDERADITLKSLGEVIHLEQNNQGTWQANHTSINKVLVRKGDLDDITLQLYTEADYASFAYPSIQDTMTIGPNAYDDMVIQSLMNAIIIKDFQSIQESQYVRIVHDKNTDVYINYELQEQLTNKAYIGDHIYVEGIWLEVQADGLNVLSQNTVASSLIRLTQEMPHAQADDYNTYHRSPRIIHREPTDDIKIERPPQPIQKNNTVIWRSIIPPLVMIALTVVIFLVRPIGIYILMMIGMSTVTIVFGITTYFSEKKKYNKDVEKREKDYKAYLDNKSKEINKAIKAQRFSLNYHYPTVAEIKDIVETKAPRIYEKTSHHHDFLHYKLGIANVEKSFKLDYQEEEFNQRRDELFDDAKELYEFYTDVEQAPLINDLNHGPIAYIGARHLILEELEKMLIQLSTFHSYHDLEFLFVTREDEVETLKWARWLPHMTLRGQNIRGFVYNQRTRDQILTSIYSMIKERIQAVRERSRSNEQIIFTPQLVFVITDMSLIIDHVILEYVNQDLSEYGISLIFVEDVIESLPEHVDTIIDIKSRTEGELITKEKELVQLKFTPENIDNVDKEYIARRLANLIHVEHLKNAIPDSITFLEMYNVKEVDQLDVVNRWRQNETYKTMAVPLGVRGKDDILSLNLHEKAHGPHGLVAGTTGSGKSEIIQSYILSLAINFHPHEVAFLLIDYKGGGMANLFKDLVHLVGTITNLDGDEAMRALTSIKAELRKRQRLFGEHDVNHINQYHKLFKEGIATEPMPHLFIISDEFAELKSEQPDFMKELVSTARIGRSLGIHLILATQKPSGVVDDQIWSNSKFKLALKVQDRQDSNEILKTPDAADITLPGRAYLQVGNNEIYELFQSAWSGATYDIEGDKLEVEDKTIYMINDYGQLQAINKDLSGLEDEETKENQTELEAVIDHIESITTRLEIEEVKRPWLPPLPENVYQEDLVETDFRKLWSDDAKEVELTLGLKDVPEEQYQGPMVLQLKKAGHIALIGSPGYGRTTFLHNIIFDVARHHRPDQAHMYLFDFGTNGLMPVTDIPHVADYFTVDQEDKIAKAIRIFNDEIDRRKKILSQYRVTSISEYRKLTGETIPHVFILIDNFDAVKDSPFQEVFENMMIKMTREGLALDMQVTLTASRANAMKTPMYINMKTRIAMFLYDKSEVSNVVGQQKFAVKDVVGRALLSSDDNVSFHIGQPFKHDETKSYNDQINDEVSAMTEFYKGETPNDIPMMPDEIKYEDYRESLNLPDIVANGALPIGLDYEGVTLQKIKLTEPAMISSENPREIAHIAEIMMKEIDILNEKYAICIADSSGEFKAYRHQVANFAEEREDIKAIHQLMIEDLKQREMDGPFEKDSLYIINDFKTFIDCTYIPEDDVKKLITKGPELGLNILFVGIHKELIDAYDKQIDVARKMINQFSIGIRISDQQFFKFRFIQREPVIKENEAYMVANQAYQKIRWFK

[2] = target: T1, EssC with a C-terminal Twin-Strep tag (S. aureus USA300 LAC*); assay: pull-down; as a1, but from membranes of the ∆esaA mutant carrying pessCTS (no EsaA made)

For “EssH (S. aureus USA300 LAC* (endogenous)) (enzyme)”, the binding [1] was “binds”.
In the case of “EssA (S. aureus USA300 LAC* (endogenous))”, the binding [2] is reported as “no binding (only in the ∆esaA mutant)” and the binding [1] is reported as “binds”.
